Structures were worked out from names or drawings and are uncertain.
Molecular target: LC3B (Homo sapiens, UniProt Q9GZQ8)
Assay: Fluorescence Polarization (FP) Assay: displacement of FITC-labeled peptide from GST-LC3B
Format: binding
Conditions: GST-LC3B 180 nM, FITC-labeled peptide 18 nM, 25° C.

`COC(=O)c1cccc(C2CC(=O)C(=CNCCN3CCOCC3)C(=O)C2)c1` (stereo not drawn) was tested, and the IC50 was under 3 µM.
`CN(C)CCNC=C1C(=O)CC(c2ccccc2[N+](=O)[O-])NC1=O` (stereo not drawn) gave an IC50 of 15 to 100 µM.
Work on `O=C1CC(c2cccc3cnccc23)CC(=O)C1=CNCCN1CCN(CCO)CC1` (stereo not drawn) yielded an IC50 of 15 to 100 µM.

From patent US11319303B2 (WIGEN BIOMEDICINE TECHNOLOGY (SHANGHAI) CO., LTD., priority 2017, dated 2022)
